Results: PubChem BioAssay AID652054 (National Center for Advancing Translational Sciences (NCATS), 2013)
The campaign covered roughly 360,000 compounds. About 9,100 (2.5%) were called active. Inconclusive means that the source gave no clear call. Such entries were picked first, then a sample of the others. Cut-off read from the data, not from the text of the source: active = max response below about -50%; inconclusive = no clear call, values can overlap the other calls; inactive = above that.

Protein sequences, listed by entry. Tags and fused reporters are not part of them.
UniProt P35462, whole entry, looked up: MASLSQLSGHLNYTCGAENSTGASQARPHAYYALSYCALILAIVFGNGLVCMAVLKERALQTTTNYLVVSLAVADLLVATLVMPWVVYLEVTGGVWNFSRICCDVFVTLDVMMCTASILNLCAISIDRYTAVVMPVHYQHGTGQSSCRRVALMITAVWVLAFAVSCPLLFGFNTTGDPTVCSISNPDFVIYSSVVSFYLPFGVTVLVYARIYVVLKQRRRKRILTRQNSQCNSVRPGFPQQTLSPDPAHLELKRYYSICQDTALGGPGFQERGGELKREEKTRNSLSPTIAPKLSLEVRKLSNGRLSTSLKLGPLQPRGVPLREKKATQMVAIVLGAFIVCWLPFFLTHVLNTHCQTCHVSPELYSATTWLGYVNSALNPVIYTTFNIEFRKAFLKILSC

Molecular target: D(3) dopamine receptor (Homo sapiens) (UniProt P35462)
Test: qHTS of D3 Dopamine Receptor Antagonist: qHTS
Conditions: D3R cells, DiscoveRx beta-arrestin luminescence, antagonist mode; stronger effect = lower value
Procedure, shortened: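 Cells plated overnight at 1500 cells/well, then exposed to library compounds with dopamine controls for 90 minutes at 37 degrees C. DiscoveRx reagent added for 30–60 minutes at room temperature; luminescence read, quantitative HTS format.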
% is set by controls: 0 for no effect and ±100 for the full control effect.

| SMILES | max response, negative = inhibition |
| --- | --- |
| CCCCn1c(N)c(N(CCOC)C(=O)c2cc(-c3ccc(F)cc3)nc3ccccc23)c(=O)[nH]c1=O | inactive: -3.81% |
| O=C1N(Cc2cccc(Cl)c2)C[C@@H]2C[C@@H](c3cccc4cccnc34)N3CCC[C@@]123 | inconclusive: -44.2% |
| COc1ccc(S(=O)(=O)NCc2cccnc2)cc1Br | inactive: 46.8% |
| Cc1cccc(NC(=O)c2cc(S(=O)(=O)N(C)c3ccc(F)cc3)ccc2Cl)n1 | active: -57.3% |
| CCOC(=O)c1c(NC(=O)C2C3C=CC(C3)C2C(=O)O)sc2c1CCC(C)C2 (stereo not drawn) | inconclusive: -44% |
| C#CCOCCOCCOCCNc1nc(N2CCN(C(=O)[C@H]([C@@H](C)CC)n3cc(CCCN=C(N)N)nn3)CC2)nc(N2CCN(C(=O)[C@H](Cc3ccc(O)cc3)n3cc(CCO)nn3)CC2)n1 | inconclusive: -44.6% |
| Cc1ccccc1-c1cc(C(=O)NCc2cccs2)nn1CC1CC(c2cccc([N+](=O)[O-])c2)=NO1 (stereo not drawn) | inconclusive: -35.6% |
| CCC/C=C/c1ccc(CN2C(C(C)C)C(=O)N(Cc3cn(CCC4OCCO4)nn3)CCS2(=O)=O)cc1 (stereo not drawn) | inactive: -5.65% |
| CCCCCc1cc(=O)oc2c(C(CCN3CCCC(C)C3)c3ccc(OC)cc3)c(OC)cc(OC)c12 (stereo not drawn) | inconclusive: -43.2% |
| Oc1ccc(Cl)cc1CNCc1ccc(Cl)nc1 | active: -64.6% |
| Cn1c(Cl)c(/C=N/OC(=O)c2ccc(Cl)cc2)c2ccccc21 | active: -69.4% |
| CC1CCC(NC(=O)Cn2c(=O)oc3cc(S(=O)(=O)N4CCCC4)ccc32)CC1 (stereo not drawn) | inconclusive: -34.6% |
| CSc1nc2ccccc2n1Cc1cccc([N+](=O)[O-])c1 | inconclusive: -40.4% |
| Cc1ccc(CNC(=O)C2CCN(S(=O)(=O)N3CCC(C)CC3)CC2)cc1 | inconclusive: -37.8% |
| NC(=S)N1N=C(c2ccccc2)CC1=O | inconclusive: -45.5% |
| CCC1CCCCN1S(=O)(=O)c1ccccc1 (stereo not drawn) | inactive: -17% |
| COc1ccccc1N1CCN(C/C(C)=C/c2ccccc2)CC1 | active: -88.8% |
| CC1(C(=O)Nc2cccc(C(F)(F)F)c2)Cc2c(-c3ccccc3)ccnc2O1 (stereo not drawn) | inactive: -0.403% |
| CCC(c1nnc(SCC(=O)NCC2CCCO2)n1Cc1ccccc1)N(C)C (stereo not drawn) | inconclusive: -33.9% |
| COc1ccc(C2CC(c3ccccc3)=NN2C(=O)COC(=O)c2cccnc2)cc1 (stereo not drawn) | inconclusive: -34.6% |
| CCOC(=O)C1CCN(Cc2cc(C(C)(C)C)c(O)c(C(C)(C)C)c2)CC1 | inconclusive: -34.6% |
| O=C(c1cc(C2CCCCN2C(=O)CCCc2ccccc2)on1)N1CCOCC1 (stereo not drawn) | active: -51.2% |

4 entries from above in a different format.
SMILES,"max response, negative = inhibition"
Cc1ccc(CNC(=O)C2CCN(S(=O)(=O)N3CCC(C)CC3)CC2)cc1,inconclusive: -37.8%
NC(=S)N1N=C(c2ccccc2)CC1=O,inconclusive: -45.5%
CCC1CCCCN1S(=O)(=O)c1ccccc1 (stereo not drawn),inactive: -17%
COc1ccccc1N1CCN(C/C(C)=C/c2ccccc2)CC1,active: -88.8%

The list continues:

| SMILES | max response, negative = inhibition |
| --- | --- |
| COc1cc(/C=N/Nc2ccccn2)ccc1O | inconclusive: -33.8% |
| COc1ccc(C(=O)Nc2ccc3[nH]c(-c4cccc(OC)c4)cc(=O)c3c2)cc1 | inconclusive: -40.9% |
| CCC(=O)N1CCNC(=O)C1CC(=O)Nc1ccc(C)c(Cl)c1 (stereo not drawn) | inconclusive: -43.1% |
| CC(=O)N(CCC(Cc1ccccc1)c1ccc2c(c1)OCO2)Cc1ccc(Cl)cc1 (stereo not drawn) | inconclusive: -31.1% |
| Nc1nonc1-n1nnc(C(=O)N/N=C/c2ccccc2)c1CSc1ccccc1 | inactive: 1.32% |
| CCOC(=O)C(CC(=O)O)N1CCCCC1 (stereo not drawn) | inactive: -1.32% |
| S=c1[nH]nc(C2CCCCC2)n1/N=C/c1ccncc1 | inactive: -23.8% |
| Cc1oc(-c2ccccc2F)nc1CN1CCC(C(=O)NCCC2=CCCCC2)CC1 | active: -56.8% |
| O=C(Cn1ncc(Cl)c(Cl)c1=O)NC1CCCCC1 | inactive: -15.3% |
| CCCCCCN1CCN(C2CN(Cc3cn(Cc4ccc(Cl)cc4)nn3)S(=O)(=O)C2)CC1 (stereo not drawn) | inconclusive: -38.5% |
| CCNS(=O)(=O)c1ccc(NC(=O)Nc2cc(C)ccc2OC)cc1 | inactive: 2.5% |
| CCCCn1c(N)c(N(CC)C(=O)C2COc3ccccc3O2)c(=O)[nH]c1=O (stereo not drawn) | inconclusive: -47.1% |
| N#CCCN1CCN(S(=O)(=O)c2ccc(S(=O)(=O)NCc3ccccc3)cc2)CC1 | inconclusive: -30.2% |
| COc1ccc(NC(=O)N(CCCN2CCOCC2)Cc2cccnc2)c(OC)c1 | inconclusive: -46.8% |
| CN(Cc1ccccc1)S(=O)(=O)c1cn(C)cn1 | inconclusive: -33% |
| O=C(CCC(=O)N1CCN(c2cccc(Cl)c2)CC1)N1CCN(c2ccccc2)CC1 | inactive: 1.09% |
| Oc1c(Br)cc(Br)cc1/C=N/Nc1ccc(Cl)nn1 | active: -68% |
| O=C(NNC(=O)c1ccccc1O)c1ccc(S(=O)(=O)Nc2ccccc2)cc1 | inactive: 62.8% |
| C#CCN(C)Cc1ccccc1 | inactive: 19.6% |
| O=C(CN(c1ccc(Br)cc1)S(=O)(=O)c1ccc(Cl)c([N+](=O)[O-])c1)NCC1CCCO1 (stereo not drawn) | inconclusive: -31% |
| COc1cc(C2SCC(=O)N2c2c(C)n(C)n(-c3ccccc3)c2=O)ccc1O (stereo not drawn) | inconclusive: -34.1% |
